In PubChem BioAssay AID485314 (National Center for Advancing Translational Sciences (NCATS), 2010):
Among all 340,000 compounds or so, about 4,500 (1.3%) were called active. This list was built around the results that the source calls inconclusive (neither active nor inactive); the mix of calls is not that of the screen. Calls come from the whole dose curve; as a rule, active = well fitted inhibition curve with a large enough effect; inconclusive = small, poorly fitted or top-dose-only effect, or another doubt; inactive = no such curve, though single readings can be large or run the other way. A potency beside an inconclusive call is a rough fit, not a confirmed value.

Molecular target: DNA polymerase beta (Homo sapiens) (UniProt P06746)
Assay: qHTS Assay for Inhibitors of DNA Polymerase Beta
Conditions: Pol beta primer extension/strand displacement, fluorescence kinetic; activity change, negative = inhibition: at 114 µM (top of the series)
Method in brief: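 Preincubation: enzyme (10 nM) with compound, 15 min, RT. Reaction: substrate added to 50 nM final. Reads: 0 and 10 min. Analysis: normalized, Hill fit.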
% is set by controls: 0 for no effect and ±100 for the full control effect; potency is the fitted concentration of half-maximal effect.

Potency, active:
O=C(COc1ccc(Cl)cc1)OCC(=O)N1CCCCCC1 35.5 µM
CC1=CC(=O)C(C(C)C)=C/C1=C(\c1cc(C(C)C)c(OP(=O)(O)O)cc1C)c1ccccc1C(=O)O 50.1 µM
COc1ccc2c(c1)cc(C(=O)N/N=C/c1c(O)c(C(=O)O)cc3ccccc13)n2C 31.6 µM

Potency, inconclusive:
COc1cccc2sc(Nc3nc(-c4ccncc4)cs3)nc12 56.2 µM [inhibitor, partial curve, poor fit]
Cc1[nH]n(-c2ccc(Br)cc2)c(=O)c1C=Nc1ccc(S(=O)(=O)Nc2nccs2)cc1 22.4 µM [inhibitor, full curve]
CCOC(=O)C1(CC2CCCCO2)CCN(C(=O)Nc2ccc(C)c(C)c2)CC1 (configuration not stated) 31.6 µM [inhibitor, single point]
Cc1cccc(CCN(CC(=O)NC(C)(C)C)C(=O)c2csnn2)c1 89.1 µM [inhibitor, single point]
CC(C)Sc1nnc([C@H](Cc2c[nH]c3ccccc23)NC(=O)OC(C)(C)C)o1 22.4 µM [inhibitor, partial curve, poor fit]
COc1cc(/C=N\NC(=O)c2ccc(-c3ccccc3)cc2)cc(OC)c1OC(C)=O 20 µM [inhibitor, full curve]
O=C(c1cc2ncc(Br)cn2n1)N1CCN(C(=O)c2ccco2)CC1 20 µM [inhibitor, full curve]
C/C(Cn1nnc([N+](=O)[O-])n1)=N\NC(=O)c1ccc(Cl)c(Cl)c1 20 µM [inhibitor, partial curve]
CCC/C=N/NC(=O)c1cccc(Br)c1 10 µM [inhibitor, partial curve, poor fit]
COc1cc(C(=O)OCC(=O)NCc2ccco2)cc(OC)c1OC 25.1 µM [inhibitor, full curve, poor fit]
COCc1cc(=O)[nH]c(/N=C(\N)Nc2ccc(C)cc2)n1 89.1 µM [inhibitor, single point]
COc1ccc(CNc2nc3c(c(C(F)(F)F)n2)CCCCC3)cc1 89.1 µM [inhibitor, single point]
CC(=O)c1ccc(NC(=O)CSc2ccc3nnc(CCNS(=O)(=O)c4ccc(C)cc4)n3n2)cc1 89.1 µM [inhibitor, single point]
Cc1ccc(S(=O)(=O)c2c(N)n(CC3CCOC3)c3nc4ccccc4nc23)cc1 (configuration not stated) 0.631 µM [inhibitor, full curve, poor fit]
CCOc1ccccc1N1CCN(C(=S)NCc2ccc(Cl)cc2)CC1 2.51 µM [inhibitor, full curve, poor fit]
COc1ccc(N(CC(=O)NCc2ccc3c(c2)OCO3)C(=O)CCC(=O)Nc2ccccn2)cc1 89.1 µM [inhibitor, single point]
CCC(C(=O)N1CCOCC1)n1c2ccccc2c2nc(=O)cc(C)n21 (configuration not stated) 0.282 µM [inhibitor, full curve, poor fit]
CNc1oc(-c2cccc3ccccc23)nc1C#N 20 µM [inhibitor, partial curve, poor fit]
O=c1c(Cl)c(N2CCN(S(=O)(=O)c3ccc(F)cc3)CC2)cnn1-c1cccc(Cl)c1 44.7 µM [inhibitor, partial curve, poor fit]
CCCn1nc(C(=O)OCn2nnc3ccccc3c2=O)c2ccccc2c1=O 39.8 µM [inhibitor, single point]
COc1cccc(NC(=O)CSC2=Nc3ccccc3C3=NC(CC(=O)NCc4ccc5c(c4)OCO5)C(=O)N23)c1 (configuration not stated) 89.1 µM [inhibitor, single point]
CC(=O)OC1COC(OC2C(O)C(C)OC(OC3C(OC4CCC5(C)C(CCC6(C)C5CC=C5C7CC(C)(C)CCC7(C(=O)O)CCC56C)C4(C)CO)OCC(O)C3O)C2O)C(O)C1OC(C)=O (configuration not stated) 25.1 µM [inhibitor, full curve, poor fit]
O=C(CCN1C(=O)C2C3C=CC(C3)C2C1=O)Nc1ccc2c(c1)OCO2 (configuration not stated) 0.708 µM [inhibitor, full curve, poor fit]
O=c1c2cc(Cl)ccc2[nH]c(=S)n1Cc1ccco1 0.794 µM [inhibitor, full curve, poor fit]

3 records drawn at random from those above, as already listed:
Potency, inconclusive:
C/C(Cn1nnc([N+](=O)[O-])n1)=N\NC(=O)c1ccc(Cl)c(Cl)c1 20 µM [inhibitor, partial curve]
CCC(C(=O)N1CCOCC1)n1c2ccccc2c2nc(=O)cc(C)n21 (configuration not stated) 0.282 µM [inhibitor, full curve, poor fit]
COc1cccc2sc(Nc3nc(-c4ccncc4)cs3)nc12 56.2 µM [inhibitor, partial curve, poor fit]

Next part.

Activity change, negative = inhibition, inconclusive:
CC(=O)NC(=S)Nc1ccc(NC(=S)NC(=O)/C=C/c2ccco2)cc1 -81.3% [inhibitor]
Cc1cccc(OCC(=O)N(Cc2ccc(F)cc2)C2CCS(=O)(=O)C2)c1C (configuration not stated) -33.4% [inhibitor]
Cc1oc2c(C)c3oc(=O)c(CC(=O)N[C@@H](CCCNC(N)=O)C(=O)O)c(C)c3cc2c1C -44.9% [inhibitor]
Cc1ccc(NC(=O)Cn2c(=O)c3cccn3c3ccccc32)c(Cl)c1 -41.5% [inhibitor]

Activity change, negative = inhibition, inactive:
Cc1cc2nc(C3CCN(C(=S)NCCCOC(C)C)CC3)[nH]c2cc1C 13%
COc1cc(Cl)c(C)cc1NC(=O)Cn1c(C)c2cnn(-c3ccccc3)c(=O)c2c1C -16.1%
S=C(NCc1ccccc1)N1CCN(C2CCCCC2)CC1 0.0011%
Cc1ccc(-c2noc(-c3nnn(-c4ccc(Br)cc4F)c3C)n2)cc1 3.93%
Nc1cccnc1Sc1cccc(Cl)c1 0.961%
CN(Cc1cnn(-c2ccccc2)c1)C(=O)C1CCC(=O)N(C2CC2)C1 (configuration not stated) 25.1%
COc1cc(OC)c(NC(=O)N2CCc3cc(S(=O)(=O)N4CCC(C)CC4)ccc32)cc1Cl 39.3%
Cc1ccc2[nH]c(=O)c(C(c3nnnn3C(C)(C)C)N(Cc3ccco3)CC3CCCO3)cc2c1 (configuration not stated) 1.83%
COc1ccc(Cc2nnc(NN)[nH]c2=O)cc1OC 0.514%
O=C(CSCC(=O)NCc1ccco1)NCc1ccco1 -0.0257%
CCCCn1c(SCC(=O)NCc2ccco2)nnc1-c1ccco1 48.4%
